# From PubChem BioAssay AID493014 (National Center for Advancing Translational Sciences (NCATS), 2011)
# About 170 (0.05%) of roughly 340,000 compounds were called active. Inconclusive means that the source gave no clear call. Such entries were picked first, then a sample of the others. The call rests on the fitted dose curve; in most records, active means well fitted inhibition curve with a large enough effect in the signal ratio, with a control signal flat (not every such curve was filed as active); inconclusive means small, poorly fitted or top-dose-only effect, or effect the other way, or a change in a side signal; inactive means flat fitted curve, though single readings scatter; the % refers to the signal ratio. A potency beside an inconclusive call is a rough fit, not a confirmed value.
# Assay: qHTS Assay to Find Inhibitors of Chronic Active B-Cell Receptor Signaling;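 on activity change, negative = inhibition: plate controls were basal doxycycline-induced cells for no effect and cells given 10 µM MG132 for full effect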
# Conditions: ABC-DLBCL IkBa-CBG/CBR reporter, luminescence ratio (green luciferase fused to IkBa over red control in TMD8 lymphoma cells), 4 h; activity change, negative = inhibition: at 46.1 µM (top of the series) unless noted
# Procedure, shortened: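 Compounds up to 46 uM were incubated four hours with TMD8 cells whose green CBG68 luciferase is fused to IkappaBalpha; red CBR luminescence normalised the signal, and concentration-effect curves were fitted to fusion, red and ratio data.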
# Potency means the concentration at half of the fitted maximal effect.
Structure (SMILES),Potency,"activity change, negative = inhibition"
COc1cc(C(CCN2CCOCC2)c2c(OC)cc(OC)c3c(-c4ccccc4)cc(=O)oc23)cc(OC)c1OC (stereo not drawn),"inconclusive: 29.1 µM [falling, single point]",–
COc1cc(Cl)c(C)cc1NC(=O)c1cccc(OC)c1OC,–,inactive: 2.71%
O=C(NCc1ccccc1Cl)c1cc(C(=O)C2CC2)c[nH]1,–,inactive: -0.0307%
COc1ccc(NC(=O)C(=O)NCC2CCCN2S(=O)(=O)c2cccs2)cc1 (stereo not drawn),–,inactive: -0.511%
CCN(CC)S(=O)(=O)c1ccc(C)c(NC(=O)CNc2cccc(S(=O)(=O)N3CCOCC3)c2)c1,–,inactive: -0.0474%
O=C1CS/C(=N/N=C/c2ccco2)N1Cc1ccc(F)cc1,–,inconclusive: 3.63%
Cc1nc2ccccn2c1C(=O)CSc1ccc(Cl)cc1Cl,–,inactive: 5.13%
CCOc1ccccc1N(C)C(=O)c1cc2c(=O)n(CC)c3ccccc3c2s1,–,inconclusive: 0.0486%
CC1CCN(S(=O)(=O)c2ccc(C(=O)Nc3ccccc3-c3nc4ccccc4[nH]3)cc2)CC1,–,inconclusive: 8.26%
CCN(CC(F)(F)C(F)F)S(=O)(=O)c1ccc(NC(=O)OC)cc1,–,inactive: -10.4%
CCOc1ccc(NC(=O)N2CCC(c3ccc(C)cc3)C2)cc1 (stereo not drawn),–,inactive
Cc1ccc2oc(-c3cccc(NC(=S)NC(=O)c4cccs4)c3)nc2c1,–,inconclusive: 18.8%
Cc1oc(-c2ccccc2)cc1C(=O)Nc1cccc2ccccc12,–,inconclusive: 25.9%
O=C(/C=C/c1ccccc1)N/C(=C/c1ccccc1)C(=O)Nc1ccccc1O,"inconclusive: 11.2 µM [falling, partial curve, poor fit]",–
CCOC(=O)c1ccc(NC(=O)COc2cccc3c(=O)n(C)ccc23)cc1,–,inactive: 18.4%
O=C(Nc1nnc(-c2ccc3c(c2)CCCC3)o1)c1ccccc1,"inconclusive: 25.9 µM [falling, single point]",–
CCOC(=O)C1=C(CSc2nc3ccccc3s2)NC(=O)NC1c1cc(C)ccc1C (stereo not drawn),–,inactive: 4.03%
O=C(Nc1nc2nccc(-c3ccccc3)n2n1)c1ccccc1,"inconclusive: 6.31 µM [falling, full curve]",–
C#CCOCCOCCOCCNc1nc(N2CCN(C(=O)CCCCCCCCCCNC(=O)[C@H]([C@@H](C)CC)n3cc(CCCCCN)nn3)CC2)nc(N2CCN(C(=O)CCCCCCCCCCNC(=O)[C@H](CO)n3cc(CCCCCN)nn3)CC2)n1,–,inconclusive: 0.434%

# Record cards, as listed above. Values in the order: Potency | activity change, negative = inhibition
# `CCN(CC)S(=O)(=O)c1ccc(C)c(NC(=O)CNc2cccc(S(=O)(=O)N3CCOCC3)c2)c1` is listed as – | inactive: -0.0474%
# `C#CCOCCOCCOCCNc1nc(N2CCN(C(=O)CCCCCCCCCCNC(=O)[C@H]([C@@H](C)CC)n3cc(CCCCCN)nn3)CC2)nc(N2CCN(C(=O)CCCCCCCCCCNC(=O)[C@H](CO)n3cc(CCCCCN)nn3)CC2)n1` is listed as – | inconclusive: 0.434%

# Remaining list, next part

Structure (SMILES),Potency,"activity change, negative = inhibition"
COc1ccc(N=C2C(=Nc3ccc(OC)cc3)N(c3ccc(OC)cc3)C(=S)N2c2ccccc2)cc1,"inconclusive: 18.4 µM [falling, single point]",–
O=C(C1CCCN(S(=O)(=O)c2ccc(Cl)cc2)C1)N(Cc1cccs1)C1CC1 (stereo not drawn),–,inconclusive: 0.675%
Cc1ccc(C(=O)NCCSCc2ccc(Cl)cc2Cl)cc1[N+](=O)[O-],–,inconclusive: 19.4%
CCc1cc(-c2[nH]ncc2-c2ccc3c(c2)OCO3)c(O)cc1O,"inconclusive: 11.6 µM [falling, partial curve]",–
COc1ccc(Cl)cc1-c1nc(SCC(=O)NC(C)C(C)C)n[nH]1 (stereo not drawn),–,inconclusive: 2.77%
Cc1cccnc1NC(=S)Nc1ccc(Br)cc1Cl,–,inconclusive: -5.16%
O=C(Nc1cc(=O)[nH]c(=O)[nH]1)c1cc(Cl)ccc1Cl,"inconclusive: 12.6 µM [falling, single point]",–
COc1ccccc1C(=O)Nc1c[nH]c(=O)[nH]c1=O,"inconclusive: 28.2 µM [falling, single point]",–
CCOC(=O)c1ccc(N2CC(O)=C(c3nc4ccccc4c(=O)[nH]3)C2=N)cc1,–,inactive: 8.16%
CCN(Cc1ccccc1)c1ccc(/C=C(\C#N)c2ccccn2)cc1,–,inconclusive: 17%
CC(c1cccs1)N(C)Cc1nc(CCc2ccccc2)no1 (stereo not drawn),–,inconclusive: 18%
CCN1CCN(c2ccc(S(=O)(=O)N3CCCCC3)cc2NC(=O)/C=C/c2cccc(OC)c2OC)CC1,–,inconclusive: -1.78%
COc1cc(C2C(=O)c3ccccc3C2=O)ccc1O,"inconclusive: 7.08 µM [falling, partial curve, poor fit]",–
CCc1cc(/C(Cc2ccccn2)=N\O)c(O)cc1O,"inconclusive: 0.103 µM [falling, full curve, poor fit]",–
Cn1c(CSCc2ccc(F)cc2)nnc1SCC(=O)Nc1nccs1,–,inconclusive: 8.79%
CCCN(CC(=O)Nc1ccc(Cl)cc1Cl)C(=O)/C=C/c1ccco1,"inconclusive: 29.1 µM [falling, single point]",–
CC1(C)CC(=O)C2=C(C1)Nc1ccccc1S2,–,inactive: -4.4%
C=CCNc1nc2c(c(=O)[nH]c(=O)n2C)n1CC(O)COc1ccc2ccccc2c1 (stereo not drawn),–,inconclusive: 6.78%
CC1CCCC(C)N1S(=O)(=O)c1ccc(NC(=O)CCn2cnc3ccccc3c2=O)cc1 (stereo not drawn),–,inconclusive: 11.5%
